Experimental data as given in US20160202245A1.
Results are given in words; binding and its absence hold for the method and conditions named. Some results given as binding are weak or reduced against the parent protein; the word gives no strength.

Amino acid sequences for entries named in this document (tags omitted). Residues count along the entry.
UniProt P60880, residues 1-197: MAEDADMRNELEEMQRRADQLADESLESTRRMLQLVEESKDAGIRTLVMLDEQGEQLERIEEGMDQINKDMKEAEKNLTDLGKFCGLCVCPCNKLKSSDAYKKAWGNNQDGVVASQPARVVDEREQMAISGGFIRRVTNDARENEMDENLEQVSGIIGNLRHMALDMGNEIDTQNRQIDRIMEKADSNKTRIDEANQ

B1: mouse monoclonal antibody 20-2-5 (antibody, V domains shown)
VH: EVNLVESGGDLVKPGGSLKLSCAVSGFTFSGYAMSWVRQTPEKRLEWVASIATNGSTYYPDTVKGRFTIFRDNARNILYLQMSSLRSEDTAIYYCTRLRGFDNWGQGTTLTVSS
VL: DVLMTQIPLSLPVSLGDQASISCRSSQNIVHSNGNTYLEWYLQKSGQSPKLLIYKVFKRLSGVPDRFSGSGSGTDFTLRISRVEAEDLGVYYCFQGSHVPYTFGGGTKLEIK
B2: mouse monoclonal antibody 5-10-5 (antibody, V domains shown)
VH: DVQLQESGPGLVKPSQSLSLTCTVTGFSITSDYAWNWIRQFPGNKLEWMGYISYKYGTRYNPSLKGRISITRDTSKNQFFLQLNSLTTEDTAIYYCARRGTDGYGFAYWGQGTLVTVSA
VL: DIVLTQSPASLGVSLGQRATISCRASESVSSSGYSYIHWYQQRPGQPPKLLIFLASNLESGVPARFSGSGSGTDFTLNIHPVEEEDAATYYCQHSRELPLTFGAGTKLELK
B3: mouse monoclonal antibody 1-10-4 (antibody, V domains shown)
VH: EVKLVESGGDLVKPGGSLKLSCAVSGFSLNTYAMSWVRQTPEQRLEWVASISTNGSTYHSDSVKGRFTISRYNARNILYLQMSSLRSEDSAIYYCTRLRGFDYWGQGTTLTVSS
VL: DILMTQTPLSLSVSLGDQASISCRSSQNIVHSNGNTYLEWYLQKPGQSPKPLIYKLSKRFSGVPDRFSGSGSGTYFTLKISRVEAEDLGVYYCFQGSHVPYTFGGGTKLEIK
B4: mouse monoclonal antibody 16-5-4 (antibody, V domains shown)
VH: EVKLVESGGDLVKPGGSLKLSCAASGFTFNTYAMSWVRQTPEKRLEWVASISSNGSTYHPESVKGRFTISRDIARNILNLQMSSLRSEDTAIYYCSRLRGFDYWGQGTTLTVSS
VL: DVLMTQTPLSLPVSLGDQASISCRSSQSIVHSNGNTYLEWYLQKPGQSPKPLIYKVFKRFSGVPDRFSGSGSGTDFTLKISRVEAEDLGVYYCFQGSHVPYTFGGGTKLEIK
B5: mouse monoclonal antibody 6-3-8 (antibody, V domains shown)
VH: EVKLVEFGGGLVEPRGSLKLSCAASGFTFSTYAMSWVRQTPEKRLEWVASIASNGSTYYPDSVRGRFTISRDNARNILYLQMSSLRSEDTAMYYCSRLRGFDYWGQGSTLTVSS
VL: DVLMTQIPLSLPVSLGDQASISCRSSQSIVHSNGNTYLEWYLQKPGQSPSLLIYKVFKRLSGVPDRFSGSGSGTEFTLKINRVEAEDLGVYYCFQGSHVPYTFGGGTKLEIK
B6: mouse monoclonal antibody 18-3-3 (antibody, V domains shown)
VH: EVKLVESGGGLVKPGGSLKLSCAASGFTFRSYAVSWVRQTPEKRLEWVASISTNGSTYYPDSMKGRFTISRDTARNILYLEMNSLRSEDTAMYYCARLRGFDYWGQGTPLTVSS
VL: DVLMTQTPLSLPVSLGDQASISCRSSQSIVHSNGNTYLEWYLQKPGQSPKLLIYKVSKRFSGVPDRFSGSGSGTDFTLKITRVEAEDLGVYYCFQGSHVPYTFGGGTKLEIK
B7: mouse monoclonal antibody 14-12-1 (antibody, V domains shown)
VH: EVKLVESGGDLVKPGGSLKLSCAASGFTLSDYAMSWVRQSPEERLEWVASISTNGSTYYPDSVKGRFTISRDNARNILSLQMSSLRSEDTAIYYCTRLRGFDNWGQGTLLTVSS
VL: DVLMTQTPLSLPVSLGDQASISCRSSQNIVHSNGNTYLEWYLQKSGQSPKLLMYKVSKRLSGVPDRFSGRGSGTDFTLKISRVEAEDLGVYYCFQGSHVPYTFGGGTKLEIK

Target: BoNT/A-cleaved SNAP-25197 (UniProt P60880)
Assay: ELISA and Western blots

Binder	binding
B1	binds
B2	binds
B3	binds
B4	binds
B5	binds
B6	binds
B7	binds
